According to the supplement of paper PMC11542785:
Counter-ions that a name gives are not always drawn. The list shows a part of the results. Most values come without repeats; read them as rough.

Test system: Drosophila melanogaster DPAGT1 (Alg7) RNAi eye model
Assay: eye size Z-score vs DMSO-treated DPAGT1 model flies; higher = larger eye (suppression of DPAGT1 phenotype)
Conditions: 5 uM

Question: For `CCOC(=O)[C@H](CCc1ccccc1)N[C@@H](C)C(=O)N(CC(=O)O)C1Cc2ccccc2C1` [Delapril Hydrochloride], which “eye size Z-score” value (female) is on record?
Answer: -0.99

Question: How did the “eye size Z-score” value turn out when `CC(=O)Oc1ccccc1C(=O)Oc1ccccc1C(=O)O` [Acetylsalicylsalicylic acid] was run?
Answer: 0.57

Question: How did the “eye size Z-score” value turn out when `Cn1cc(C(=O)[C@@H]2CCc3[nH]cnc3C2)c2ccccc21` [Ramosetron hydrochloride] was run?
Answer: 0.64

Question: `CC(C)NC[C@H](O)COc1cccc2ccccc12` [(S)-(-)-Propranolol hydrochloride] was tested. Which “eye size Z-score” value did it give?
Answer: 1.04

Question: `CC(=O)CCCCn1c(=O)c2c(ncn2C)n(C)c1=O` [Pentoxifylline] was tested. Which “eye size Z-score” value did it give?
Answer: 0.24

Question: With `CN1C(=O)OC(C)(C)C1=O` [Trimethadione] as the compound, how does the “eye size Z-score” value read?
Answer: 0.02

Question: How did the “eye size Z-score” value turn out when `CN(C/C=C/c1ccccc1)Cc1cccc2ccccc12` [Naftifine hydrochloride] was run?
Answer: -0.18

Question: `OCCN1CCN(CCCN2c3ccccc3C=Cc3ccccc32)CC1` [Opipramol dihydrochloride] was tested. Which “eye size Z-score” value did it give?
Answer: -1.05

Question: For `Nc1c(CC(=O)O)cccc1C(=O)c1ccc(Br)cc1` [Bromfenac], which “eye size Z-score” value is on record?
Answer: -1.59

Question: Which “eye size Z-score” value does the source give for `CCCC(CCC)C(=O)O[C@H]1C[C@H]2CC[C@@H](C1)[N+]2(C)C` [Anisotropine Methylbromide] here?
Answer: 1.68

Question: How did the “eye size Z-score” value turn out when `CN(C)CCCSC(=N)N` [Dimaprit dihydrochloride] was run?
Answer: 0.81

Question: Which “eye size Z-score” value does the source give for `C[C@H](Cc1cc2c(c(C(N)=O)c1)N(CCCO)CC2)NCCOc1ccccc1OCC(F)(F)F` [Silodosin] here?
Answer: 0.41

Question: How did the “eye size Z-score” value turn out when `Cc1onc(-c2c(F)cccc2Cl)c1C(=O)N[C@@H]1C(=O)N2[C@@H]1SC(C)(C)[C@@H]2C(=O)O` [Flucloxacillin sodium] was run?
Answer: -0.73

Question: Which “eye size Z-score” value does the source give for `O=C(NCCN1CCOCC1)c1ccc(Cl)cc1` [Moclobemide] here?
Answer: -2.09

Question: `NS(=O)(=O)c1cc(Cl)c(Cl)c(S(N)(=O)=O)c1` [Dichlorphenamide] was tested. Which “eye size Z-score” value did it give?
Answer: -0.16

Question: Which “eye size Z-score” value does the source give for `CCCCCNC(=N)N/N=C/c1c[nH]c2ccc(OC)cc12` [Tegaserod maleate] here?
Answer: 0.24

Question: For `CCN1CCCC(OC(=O)C(c2ccccc2)c2ccccc2)C1` (stereo unspecified) [Piperidolate hydrochloride], which “eye size Z-score” value is on record?
Answer: -0.71

Question: `C[C@@H]1C[C@H]2[C@@H]3C[C@H](F)C4=CC(=O)C=C[C@]4(C)[C@@]3(Cl)[C@@H](O)C[C@]2(C)[C@H]1C(=O)COC(=O)C(C)(C)C` [Clocortolone pivalate] was tested. Which “eye size Z-score” value did it give?
Answer: -0.42

Question: With `OC(c1cc(C(F)(F)F)nc2c(C(F)(F)F)cccc12)C1CCCCN1` (stereo unspecified) [Mefloquine hydrochloride] as the compound, how does the “eye size Z-score” value read?
Answer: 1.32

Question: `CNCCCC12CCC(c3ccccc31)c1ccccc12` [Maprotiline hydrochloride] was tested. Which “eye size Z-score” value did it give?
Answer: 0.03

Question: Which “eye size Z-score” value does the source give for `C[C@]12C=CC(=O)C=C1CC[C@H]1[C@@H]3C[C@@H](O)[C@](O)(C(=O)CO)[C@@]3(C)C[C@H](O)[C@@]12F` [Triamcinolone] here?
Answer: 0.03

Question: Which “eye size Z-score” value does the source give for `CC1(C)O[C@@H]2C[C@H]3[C@@H]4CCC5=CC(=O)CC[C@]5(C)[C@@]4(F)[C@@H](O)C[C@]3(C)[C@]2(C(=O)CCl)O1` [Halcinonide] here?
Answer: -0.2

Question: How did the “eye size Z-score” value turn out when `CCN(CC)C(=O)/C(C#N)=C/c1cc(O)c(O)c([N+](=O)[O-])c1` [Entacapone] was run?
Answer: -0.51

Question: Which “eye size Z-score” value does the source give for `C[C@@H](O)[C@H]1C(=O)N2C(C(=O)O)=C(S[C@@H]3CN[C@H](C(=O)N(C)C)C3)[C@H](C)[C@H]12` [Meropenem] here?
Answer: 0.79

Question: For `CC(=O)O[C@H]1C[C@@H]2CC[C@@H]3[C@H](CC[C@@]4(C)[C@H]3C[C@H]([N+]3(C)CCCCC3)[C@@H]4OC(C)=O)[C@@]2(C)C[C@@H]1N1CCCCC1` [Vecuronium bromide], which “eye size Z-score” value is on record?
Answer: 0.48

Question: `NC(=O)c1cnccn1` [Pyrazinamide] was tested. Which “eye size Z-score” value did it give?
Answer: -1.22

Question: For `O=C(CCNNC(=O)c1ccncc1)NCc1ccccc1` [Nialamide], which “eye size Z-score” value is on record?
Answer: 0.16

Question: With `N/C(=N\C(=O)c1nc(Cl)c(N)nc1N)NCc1ccccc1` [Benzamil hydrochloride] as the compound, how does the “eye size Z-score” value read?
Answer: 1.44

Question: `N#C/C(=C1/SCC(c2ccccc2Cl)S1)n1ccnc1` (stereo unspecified) [Lanoconazole] was tested. Which “eye size Z-score” value did it give?
Answer: -1.15

Question: How did the “eye size Z-score” value (female) turn out when `Cc1nc2ccccn2c(=O)c1CCN1CCC(C(=O)c2ccc(F)cc2)CC1` [Pirenperone] was run?
Answer: 0.01

Question: How did the “eye size Z-score” value turn out when `CSc1nc2cc(Cl)c(Oc3cccc(Cl)c3Cl)cc2[nH]1` [Triclabendazole] was run?
Answer: -0.12

Question: With `COc1cccc2c1C(=O)c1c(O)c3c(c(O)c1C2=O)C[C@@](O)(C(=O)CO)C[C@@H]3O[C@H]1C[C@H](N)[C@@H](O)[C@H](C)O1` [Epirubicin hydrochloride] as the compound, how does the “eye size Z-score” value read?
Answer: -0.1

Question: For `CCCN(CCC)CCc1cccc2c1CC(=O)N2` [Ropinirole hydrochloride], which “eye size Z-score” value is on record?
Answer: -1.19

Question: Which “eye size Z-score” value does the source give for `CC(=O)O[C@H]1C(=O)[C@@]2(C)[C@H]([C@H](OC(=O)c3ccccc3)[C@]3(O)C[C@H](OC(=O)[C@H](O)[C@@H](NC(=O)c4ccccc4)c4ccccc4)C(C)=C1C3(C)C)[C@]1(OC(C)=O)CO[C@@H]1C[C@@H]2O` [Paclitaxel] here?
Answer: 1.6

Question: `COc1c(-c2ccc3cc(NS(C)(=O)=O)ccc3c2)cc(-n2ccc(=O)[nH]c2=O)cc1C(C)(C)C` [Dasabuvir] was tested. Which “eye size Z-score” value did it give?
Answer: -0.03

Question: For `C/C=C(/C(=C/C)c1ccc(O)cc1)c1ccc(O)cc1` [Dienestrol], which “eye size Z-score” value is on record?
Answer: 0.37

Question: Which “eye size Z-score” value does the source give for `Cc1ncc([N+](=O)[O-])n1CC(C)O` (stereo unspecified) [Secnidazole] here?
Answer: 0.46

Question: `O=C(O)c1ccccc1OP(=O)(O)O` [Fosfosal] was tested. Which “eye size Z-score” value did it give?
Answer: 0.52

Question: With `COc1ccc2cc([C@H](C)C(=O)O)ccc2c1` [(S)-Naproxen] as the compound, how does the “eye size Z-score” value read?
Answer: 0.45

Question: With `Nc1cc(N2CCCCC2)nc(N)[n+]1[O-]` [Minoxidil] as the compound, how does the “eye size Z-score” value read?
Answer: 1.22

Question: With `CC1(C)S[C@@H]2[C@H](NC(=O)[C@H](N)c3ccccc3)C(=O)N2[C@H]1C(=O)O` [Ampicillin trihydrate] as the compound, how does the “eye size Z-score” value read?
Answer: 0.33

Question: With `CC1(C)S[C@@H]2[C@H](NC(=O)[C@H](N)c3ccccc3)C(=O)N2[C@H]1C(=O)O` [Ampicillin sodium salt] as the compound, how does the “eye size Z-score” value read?
Answer: 1.64

Question: How did the “eye size Z-score” value turn out when `O=C(O)c1cc(=O)[nH]c(=O)[nH]1` [Orotic acid] was run?
Answer: 1.3

Question: For `CCC(NC(C)C)C(O)c1ccc(O)c2[nH]c(=O)ccc12` (stereo unspecified) [Procaterol hydrochloride], which “eye size Z-score” value is on record?
Answer: 0.35

Question: Which “eye size Z-score” value does the source give for `Nc1ncnc2c1ncn2C1OC(COP(=O)(O)O)C(O)C1O` (stereo unspecified) [Adenosine 5'-monophosphate monohydrate] here?
Answer: 0.5

Question: `CCOC(=O)[C@H](CCc1ccccc1)N[C@@H](C)C(=O)N1C(=O)N(C)C[C@H]1C(=O)O` [Imidapril hydrochloride] was tested. Which “eye size Z-score” value did it give?
Answer: -0.55
